Results deposited as PubChem BioAssay AID743454 (Peter MacCallum Cancer Centre, 2014).

- Assay: 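Search for knock-downs that restore vorinostat killing in resistant colon cancer cells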 (primary screen)
- System: human HCT116-VR colon cancer cells, selected for vorinostat resistance
- Knock-down reagent: siRNA pool against human genes, 40 nM siRNA pool
- Time to read-out: vorinostat for 24 h, read-out about 72 h after transfection
- Conditions: vorinostat at 2.5 µM final
- Measured: 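Two measures, CellTiter-Fluor viability and luminescent caspase 3/7 activity, each as fold change against same-plate mock wells, mean of duplicates, then screen-wide robust z-score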
- Scale: viability robust z-score: higher = more viable cells than screen typical; caspase robust z-score: higher = more caspase 3/7 activity than screen typical
- Hit rule: 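a knock-down is a hit when classed RV1 or RV2 for lowered viability, or CA1 or CA2 for caspase activation; those lethal without drug were dropped; hits were retested singly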
This is a random part of about 18,000 reagents tested. In the full data, 450 (2.5%) are marked active. 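Single biological run; no consistent viability z cut-off exists, so the class columns, not z-scores, define the calls.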 Unmarked entries are inactive.

gene knocked down | viability hit class | caspase hit class | viability robust z-score | caspase robust z-score
FGF10 | no change | no change | -0.22 | 3.66
FAM50A | no change | no change | 0.82 | 1.84
FIBCD1 | no change | no change | -2.2 | 1.07
SNW1 | no change | no change | -2.38 | -0.73
CREG2 | no change | no change | -0.14 | -0.17
RABGAP1 | no change | no change | -0.63 | -1.07
ZMYM5 | no change | no change | 0.4 | -0.04
TUBA8 | no change | no change | -0.32 | -0.84
ZNF658B | no change | no change | -0.24 | 1.17
PPA1 | no change | no change | 0.06 | 0.12
FHL1 | no change | no change | -0.2 | -0.42

Entries listed so far whose gene name starts with F or f (4):
gene knocked down | viability hit class | caspase hit class | viability robust z-score | caspase robust z-score
FGF10 | no change | no change | -0.22 | 3.66
FAM50A | no change | no change | 0.82 | 1.84
FIBCD1 | no change | no change | -2.2 | 1.07
FHL1 | no change | no change | -0.2 | -0.42

Additional results follow.
gene knocked down | viability hit class | caspase hit class | viability robust z-score | caspase robust z-score
SEC16A | no change | no change | 0.15 | -1.03
DCAF12 | no change | no change | 0.52 | -0.65
OR51D1 | no change | no change | 0.94 | 0.98
RPL14 | no change | no change | -5.96 | -0.32
LHFPL5 | no change | no change | 0.26 | -0.5
SRMS | no change | no change | -1.56 | -0.32
ADCY1 | no change | no change | -0.16 | 2.07
RCL1 | no change | no change | -0.98 | -0.36
TYMS | no change | no change | -0.88 | -0.62
MMP9 | no change | no change | 0.72 | 0.62
LYZL6 | no change | no change | 0.06 | -0.42
PDCL | no change | no change | -0.48 | 2
